# Test results as given in PubChem BioAssay AID1671190 (National Center for Advancing Translational Sciences (NCATS), 2021).
# Protein sequences, listed by entry. Tags and fused reporters are not part of them.
# UniProt P18054, whole entry, looked up: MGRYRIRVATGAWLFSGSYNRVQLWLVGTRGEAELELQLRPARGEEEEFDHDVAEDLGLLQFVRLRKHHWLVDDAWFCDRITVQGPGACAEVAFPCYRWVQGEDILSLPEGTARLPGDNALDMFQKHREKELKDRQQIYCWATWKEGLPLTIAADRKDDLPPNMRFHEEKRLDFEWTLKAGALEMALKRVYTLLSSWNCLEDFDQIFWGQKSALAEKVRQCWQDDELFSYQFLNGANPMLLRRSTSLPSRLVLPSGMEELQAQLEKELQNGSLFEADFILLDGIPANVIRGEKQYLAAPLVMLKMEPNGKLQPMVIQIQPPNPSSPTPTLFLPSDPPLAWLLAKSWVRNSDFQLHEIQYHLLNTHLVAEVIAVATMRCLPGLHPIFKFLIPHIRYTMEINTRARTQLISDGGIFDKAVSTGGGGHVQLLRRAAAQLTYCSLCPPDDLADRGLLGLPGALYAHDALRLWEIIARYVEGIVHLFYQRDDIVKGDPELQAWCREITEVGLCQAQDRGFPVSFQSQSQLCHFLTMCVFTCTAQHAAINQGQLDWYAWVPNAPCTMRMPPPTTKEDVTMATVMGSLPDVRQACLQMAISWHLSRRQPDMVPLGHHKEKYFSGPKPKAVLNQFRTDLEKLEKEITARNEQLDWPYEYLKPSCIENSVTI
# Screen size: about 580,000 compounds; about 6,100 (1.1%) were called active. This list was built around the results that the source calls inconclusive (neither active nor inactive); the mix of calls is not that of the screen. Calls come from the whole dose curve; as a rule, active = well fitted inhibition curve with a large enough effect; inconclusive = small, poorly fitted or top-dose-only effect, or another doubt; inactive = no such curve, though single readings can be large or run the other way. A potency beside an inconclusive call is a rough fit, not a confirmed value.
# Target: Polyunsaturated fatty acid lipoxygenase ALOX12 (Homo sapiens) (UniProt P18054)
# Test: Primary qHTS assay for inhibitors of human arachidonate 12S-lipoxygenase (ALOX12): Round 2
# Settings: purified 12hLO, xylenol orange hydroperoxide absorbance; series mostly up to 108 µM
# Procedure, shortened: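 Purified human 12hLO at 150 nM in 25 mM Hepes, 0.01% Triton X-100, pH 7.0, preincubated 15 min at room temperature with compound. Reaction started with 40 uM arachidonic acid, 30 min at room temperature. Hydroperoxide measured by Fe-xylenol orange, 573/405 nm absorbance ratio.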
# Potency is the fitted concentration of half-maximal effect.
row,Structure (SMILES),Potency
1,COC(=O)CN(C(=S)Nc1ccccc1)C1CC(=O)N(c2ccc(OC)cc2)C1=O (stereo unspecified),"inconclusive: 89.1 µM [inhibitor, partial curve, poor fit]"
2,Cc1ccc(CNC(=S)Nc2cc(C(=O)O)ccc2C)cc1,"inconclusive: 44.7 µM [inhibitor, partial curve, poor fit]"
3,COC(=O)c1ccc(NC(=S)NCCc2ccc(OC)cc2)cc1,inactive
4,Cc1ccccc1NS(=O)(=O)c1ccc2[nH]cc(C(=O)NCCCN3CCOCC3)c(=O)c2c1,"inconclusive: 89.1 µM [inhibitor, single point]"
5,Cc1ccc(NC2=C(Cl)C(=O)OC2OC(=O)c2ccccc2C)cc1 (stereo unspecified),"inconclusive: 70.8 µM [inhibitor, partial curve, poor fit]"
6,CCCCc1ccc(/C=C2\C(=O)ON=C2c2ccccc2)s1,inactive
7,O=C(COc1ccc(Cl)cc1)NCCc1csc(-c2cccc(F)c2)n1,"inconclusive: 126 µM [inhibitor, partial curve, poor fit]"
8,FC(F)(F)c1cc(CCN2CCNC[C@H]2Cc2cccc3ccccc23)cc(C(F)(F)F)c1,"inconclusive: 79.4 µM [inhibitor, partial curve, poor fit]"
9,O=C(/C=C/c1ccco1)OCc1nnc(-c2ccc(Cl)cc2)o1,active: 44.7 µM
10,O=C(C[n+]1cccc(/C=N/O)c1)N1CCCCCC1,"inconclusive: 50.1 µM [inhibitor, partial curve, poor fit]"
11,CC(=O)N1N=C(c2cccc(NS(=O)(=O)c3ccc(C)cc3)c2)CC1c1ccco1 (stereo unspecified),"inconclusive: 44.7 µM [inhibitor, partial curve, poor fit]"
12,Nc1ccc(C(=O)Nc2ccc3nc(-c4cccnc4)[nH]c3c2)cc1,"inconclusive: 35.5 µM [inhibitor, single point]"
13,CCc1nc2c(OCc3cccc(Cl)c3)cccn2c1N(C)C(=O)c1ccc(C)cc1,"inconclusive: 31.6 µM [inhibitor, partial curve, poor fit]"
14,CC(CCc1ccc(O)cc1)NCCC(c1ccccc1)c1ccccc1 (stereo unspecified),inactive
15,O=C(COC(=O)Cc1n[nH]c(=O)c2ccccc12)NNC(=O)c1ccc(Cl)cc1,inactive
16,O=C1CN(C(=O)COC(=O)/C=C/c2ccc(S(=O)(=O)N3CCOCC3)cc2)c2ccccc2N1,"inconclusive: 126 µM [inhibitor, partial curve, poor fit]"
17,O=[N+]([O-])c1ccc(-c2nc(Nc3ccc(O)cc3)c3ccccc3n2)cc1,"inconclusive: 100 µM [inhibitor, partial curve, poor fit]"
18,Fc1ccccc1CSCc1ccc(-c2nc(-c3ccc4c(c3)OCO4)no2)o1,"inconclusive: 20 µM [inhibitor, partial curve]"
19,Cc1ccc(-c2csc(NC(=O)c3cccc([N+](=O)[O-])c3C(=O)O)n2)cc1,"inconclusive: 44.7 µM [inhibitor, partial curve, poor fit]"
20,O=C(Cc1coc2ccc3ccccc3c12)NC1CCCc2ccccc21 (stereo unspecified),inactive
21,Cc1cc(C(=O)NCc2ccncc2)c2ccccc2n1,inactive

# Quoted at random: 2 compounds from above.
row,Structure (SMILES),Potency
15,O=C(COC(=O)Cc1n[nH]c(=O)c2ccccc12)NNC(=O)c1ccc(Cl)cc1,inactive
14,CC(CCc1ccc(O)cc1)NCCC(c1ccccc1)c1ccccc1 (stereo unspecified),inactive

# Additional records:

row,Structure (SMILES),Potency
1,CC(C)C(=O)Nc1ccc(S(=O)(=O)NCCn2nc(-c3ccccc3)ccc2=O)cc1,"inconclusive: 158 µM [inhibitor, single point]"
2,CCn1nc(C)cc1-c1n[nH]c(=S)n1N,"inconclusive: 44.7 µM [inhibitor, partial curve, poor fit]"
3,O=C(c1ccccc1)N1CCCC(c2ccc(Cl)cc2)=N1,inactive
4,Cc1ccc(C(=O)N2CCc3[nH]nc(C(=O)N(C)C)c3C2)cc1C,inactive
5,Cc1cc2[nH]c(=O)c(=O)[nH]c2cc1S(=O)(=O)Nc1cccc(C(F)(F)F)c1,"inconclusive: 89.1 µM [inhibitor, partial curve, poor fit]"
6,COc1cccc(CNC(=O)CCS(=O)(=O)c2ccc3c(c2)CC(C)N3C(=O)C2CC2)c1 (stereo unspecified),inactive
7,COC(=O)C1=C(C)Nc2ccc(C)cc2S1,"inconclusive: 31.6 µM [inhibitor, single point]"
8,CSc1ccc(/C=N/NC(=O)c2ccccc2F)cc1,inactive
9,CN(C(=O)COC(=O)c1nc(-c2ccccc2)n(-c2ccccc2)n1)C1CCS(=O)(=O)C1 (stereo unspecified),"inconclusive: 89.1 µM [inhibitor, single point]"
10,FC(F)(F)c1ccccc1N/N=C/c1ccc(Cl)cc1Cl,"inconclusive: 44.7 µM [inhibitor, partial curve, poor fit]"
11,Cn1nccc1CN1CCC(n2cc[nH]c2=O)CC1,inactive
12,CC1CCCCC1NC(=O)c1cc2ccccc2o1 (stereo unspecified),inactive
13,Cc1ccc(-n2nc3c(=O)n(C(C)C(=O)NCc4ccc(Cl)cc4)nc(C)c3c2C)cc1 (stereo unspecified),inactive
14,CC1=C[C@@H](CNS(=O)(=O)c2ccccc2)[C@H](C(C)C)C[C@H]1CC(=O)NCc1ccc(C#N)cc1,active: 35.5 µM
15,Clc1ccc(Cl)c(-c2nn3c(COc4ccccc4)nnc3s2)c1,"inconclusive: 28.2 µM [inhibitor, partial curve]"
16,C=CCC[C@@H](Cc1ccc(F)cc1)C(=O)OC[C@H](Cc1c[nH]c2ccccc12)NC(=O)[C@@H](CC=C)CC(=O)N[C@H](CO)Cc1ccccc1,"inconclusive: 79.4 µM [inhibitor, partial curve, poor fit]"
17,Cc1ccc(C2/C(=C(/O)c3ccc(Br)cc3)C(=O)C(=O)N2Cc2ccco2)o1 (stereo unspecified),"inconclusive: 4.47 µM [inhibitor, full curve, poor fit]"
18,COc1ccc(C(O)c2nc(/C=C/c3ccc(C(F)(F)F)cc3)cs2)cc1 (stereo unspecified),"inconclusive: 89.1 µM [inhibitor, partial curve, poor fit]"
19,CCc1cccc(NC(=O)CCN2C(=O)c3ccccc3Sc3ncccc32)c1,"inconclusive: 39.8 µM [inhibitor, partial curve, poor fit]"
20,COc1ccc(/C=N/NS(=O)(=O)c2ccccc2)cc1OC(=O)c1ccc(C)cc1,"inconclusive: 35.5 µM [inhibitor, partial curve, poor fit]"
